Data taken from paper PMC10545682.
Results are given in words; binding and its absence hold for the method and conditions named. In cells and extracts the contact can be indirect. Some binding calls cover weakened binding; strength is not graded here.

Amino acid sequences for entries named in this document (tags omitted). A change or cut given only in a name is not applied to a line headed by its entry. Chains listed by the source or under a name are the forms on record and can include a tag or linker.
UniProt Q8WV24: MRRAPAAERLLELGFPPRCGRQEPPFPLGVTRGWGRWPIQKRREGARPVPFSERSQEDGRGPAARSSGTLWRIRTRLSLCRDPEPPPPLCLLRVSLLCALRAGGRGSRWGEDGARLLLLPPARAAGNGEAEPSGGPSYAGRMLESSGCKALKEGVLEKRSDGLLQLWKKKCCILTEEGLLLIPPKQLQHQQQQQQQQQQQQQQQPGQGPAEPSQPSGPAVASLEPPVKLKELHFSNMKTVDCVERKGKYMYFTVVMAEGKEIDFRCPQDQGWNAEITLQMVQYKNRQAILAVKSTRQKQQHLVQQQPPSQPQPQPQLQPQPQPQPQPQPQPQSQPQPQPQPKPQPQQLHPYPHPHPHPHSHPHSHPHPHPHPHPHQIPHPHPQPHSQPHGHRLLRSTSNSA
constitutively active FGFR2 mutant (C383R) (P21802-3, form named): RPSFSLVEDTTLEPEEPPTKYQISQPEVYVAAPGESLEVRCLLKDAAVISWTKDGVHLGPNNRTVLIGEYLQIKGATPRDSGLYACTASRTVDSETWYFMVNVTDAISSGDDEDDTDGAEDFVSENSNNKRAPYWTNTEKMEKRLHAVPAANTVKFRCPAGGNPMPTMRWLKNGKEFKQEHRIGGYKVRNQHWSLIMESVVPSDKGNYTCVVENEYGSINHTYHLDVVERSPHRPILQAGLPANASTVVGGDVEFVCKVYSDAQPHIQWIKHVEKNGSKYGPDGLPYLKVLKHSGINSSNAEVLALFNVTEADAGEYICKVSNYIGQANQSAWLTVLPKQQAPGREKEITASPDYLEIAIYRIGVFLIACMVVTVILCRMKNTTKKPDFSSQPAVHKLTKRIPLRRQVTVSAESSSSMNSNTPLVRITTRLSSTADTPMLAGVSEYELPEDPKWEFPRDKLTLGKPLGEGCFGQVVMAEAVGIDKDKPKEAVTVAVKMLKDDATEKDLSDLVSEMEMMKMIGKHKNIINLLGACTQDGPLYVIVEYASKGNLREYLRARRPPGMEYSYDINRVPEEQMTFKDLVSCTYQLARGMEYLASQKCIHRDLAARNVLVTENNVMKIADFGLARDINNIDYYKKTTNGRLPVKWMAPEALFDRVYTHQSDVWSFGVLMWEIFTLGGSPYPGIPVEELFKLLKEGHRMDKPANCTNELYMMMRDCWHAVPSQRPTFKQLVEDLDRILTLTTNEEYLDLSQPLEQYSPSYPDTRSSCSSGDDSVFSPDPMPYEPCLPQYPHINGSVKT

Target: Pleckstrin homology-like domain family A member 1 with HA tag (PHLDA1-HA) (UniProt Q8WV24)
Test: co-IP; HEK293T cells co-transfected with FGFR2-C383R and PHLDA1-HA, harvested 48 h after transfection, NP40 lysis buffer with phosphatase inhibitors; extracts incubated with anti-HA agarose beads overnight at 4 °C; Western blot of the precipitates

constitutively active FGFR2 mutant (C383R) (from UniProt P21802-3 22-822) (receptor)
binding: binds
